# Assay results published in the supplement of paper PMC9135407.
# “And” between values parts separate entries of the source, which are not always exact repeats. Equal entries are not always repeated. Structures can show the parent of a compound that is named as a salt. ± gives the standard deviation of the averaged measurements. The list shows a part of the results. Baselines shift from plate to plate; read single values as rough.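 Primary human stellate myofibroblasts activated in culture; inactivation shown by regained lipid droplets. Readout: fraction of Hoechst-counted cells exceeding a per-plate Bodipy threshold, duplicate wells, each plate with DMSO negative and nortriptyline positive controls. Hits: control-normalized score beyond the plate's top-tenth-percentile nortriptyline wells, or among its three best wells. Final well concentrations unstated.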
# Test system: primary human hepatic stellate cells (donor 1)
# Test: percent Bodipy-positive cells; higher = more lipid droplet accumulation
# Details: 48 h
# Method: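 Primary lipid accumulation screen in primary human hepatic stellate cell myofibroblasts (donor 1, passage 8) in 384-well plates. 100 nL of library compound was pin-transferred into 30 µL medium in duplicate, and cells were treated for 48 h. The 'Scaled' score combines distance from plate baseline, toxicity and reproducibility penalties, and is normalised to nortriptyline (positive) and DMSO (negative) controls on each plate. A hit is defined as scaled >0.85 or among the top 3 wells per plate.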
# [1] = library stock concentration: 3.33 mM
# [2] = library stock concentration: 10 mM
# [3] = library stock concentration: 400 uM
# [4] = library stock concentration: 2 mM
# [5] = library stock concentration: 1 mM
# [6] = library stock concentration: 80 uM
smiles,measurement,setting,value
Cc1cnc(-c2cc(N3CCN(C(=O)CCS(C)(=O)=O)CC3)ncc2Cl)c(C)c1,percent Bodipy-positive cells,[1],9.26 ± 2.7%
same,percent Bodipy-positive cells,[2],11.7 ± 0.54%
COC(=O)c1ccc2c(c1)NC(=O)C2=C(Nc1ccc(N(C)C(=O)CN2CCN(C)CC2)cc1)c1ccccc1,percent Bodipy-positive cells,[2],90.5 ± 1.8%
c1nc2c(NC3CCCCC3)nc(Nc3ccc(N4CCOCC4)cc3)nc2[nH]1 [Reversine],percent Bodipy-positive cells,[1],9.78 ± 0.45%
COc1cc2nccc(Oc3ccc(NC(=O)NC4CC4)c(Cl)c3)c2cc1C(N)=O [Lenvatinib (E7080)],percent Bodipy-positive cells,[1],5.68 ± 0.6%
same,percent Bodipy-positive cells,[2],10.8 ± 6.2%
COc1cc2nccc(Oc3ccc(NC(=O)NC4CC4)c(Cl)c3)c2cc1C(N)=O,percent Bodipy-positive cells,[3],11.7 ± 2.6%
same,percent Bodipy-positive cells,[4],14.9 ± 5.1%
same,percent Bodipy-positive cells,[2],19.2 ± 6.2%
CCC(C)(Oc1ccc(C2(c3ccc(OC(C)(CC)C(=O)O)cc3)CCCCC2)cc1)C(=O)O (stereo unspecified) [Clinofibrate],percent Bodipy-positive cells,[1],13.2 ± 5.6%
same,percent Bodipy-positive cells,[2],15.1 ± 4.8%
C[C@@H](O[C@H]1OCCN(Cc2nn(P(=O)(O)O)c(=O)[nH]2)[C@H]1c1ccc(F)cc1)c1cc(C(F)(F)F)cc(C(F)(F)F)c1 [Fosaprepitant dimeglumine salt],percent Bodipy-positive cells,[1],3.65 ± 0.88%
same,percent Bodipy-positive cells,[2],12.3 ± 4.3%
CCCCCCCCCC(=O)N[C@H](CN1CCOCC1)[C@H](O)c1ccccc1 (racemic) [DL-threo-PDMP (hydrochloride)],percent Bodipy-positive cells,[5],8 ± 0.58%
CC/C=C\C/C=C\C/C=C\CCCCCCCCCCCC(=O)O [Docosatrienoic acid (22:3 n-3)],percent Bodipy-positive cells,[5],11.9 ± 11%
c1ccc2c(CC3=NCCN3)cccc2c1 [Naphazoline HCl],percent Bodipy-positive cells,[1],11.69 ± 0.11%
same,percent Bodipy-positive cells,library stock concentration: 9.5 mM,22.2 ± 1.5%
same,percent Bodipy-positive cells,[2],35.5 ± 16%
c1ccc2c(CC3=NCCN3)cccc2c1 [Naphazoline hydrochloride],percent Bodipy-positive cells,,34.4 ± 12%
same,percent Bodipy-positive cells,library stock concentration: 8.1 mM,7.3 ± 1.5%
CC(=O)OCC(=O)[C@@]12OC(C)(C)O[C@@H]1C[C@H]1[C@@H]3C[C@H](F)C4=CC(=O)C=C[C@]4(C)[C@@]3(F)[C@@H](O)C[C@@]12C [Fluocinonide],percent Bodipy-positive cells,,6.85 ± 2.3%
same,percent Bodipy-positive cells,[1],6.47 ± 1.5%
same,percent Bodipy-positive cells,library stock concentration: 4 mM,4.36 ± 1.7%
same,percent Bodipy-positive cells,[2],15.6% and 13.2%
COC(=O)C1=CO[C@@H](C)[C@H]2CN3CCc4c([nH]c5ccccc45)[C@@H]3C[C@H]12 [Ajmalicine hydrochloride],percent Bodipy-positive cells,,50.6 ± 18%
CC(C=CC(=O)NO)=CC(C)C(=O)c1ccc(N(C)C)cc1 (stereo unspecified) [Trichostatin A (TSA)],percent Bodipy-positive cells,[1],64.7 ± 0.83%
same,percent Bodipy-positive cells,[2],78.9 ± 9.8%
Cc1cc(Nc2cc(N3CCN(C)CC3)nc(C=Cc3ccccc3)n2)n[nH]1,percent Bodipy-positive cells,[1],89.5 ± 3%
CCN(CC)CC(=O)Nc1c(C)cccc1C [Lidocaine?HCl?H2O],percent Bodipy-positive cells,library stock concentration: 17.3 mM,9.11 ± 1.4%
CCN(CC)CC(=O)Nc1c(C)cccc1C,percent Bodipy-positive cells,library stock concentration: 9.6 mM,11.6 ± 0.4%
CCN(CC)CC(=O)Nc1c(C)cccc1C [Lidocaine],percent Bodipy-positive cells,[1],11.8 ± 1.1%
same,percent Bodipy-positive cells,[2],19.7 ± 4.3%
CCN(CC)CC(=O)Nc1c(C)cccc1C [Lidoca?ne hydrochloride],percent Bodipy-positive cells,,28.1 ± 2.6%
CCN(CC)CC(=O)Nc1c(C)cccc1C [Lidocaine hydrochloride],percent Bodipy-positive cells,[2],28.6% and 25.7%
CN(c1ccccc1CNc1nc(Nc2ccc3c(c2)CC(=O)N3)ncc1C(F)(F)F)S(C)(=O)=O,percent Bodipy-positive cells,[6],9.25 ± 3%
same,percent Bodipy-positive cells,[3],10.5% and 12.5%
same,percent Bodipy-positive cells,[2],34.5% and 45.9%
O=C1NS(=O)(=O)c2ccccc21 [Saccharin],percent Bodipy-positive cells,[2],24.8 ± 1.9%
same,percent Bodipy-positive cells,library stock concentration: 10.9 mM,23.7 ± 1.9%
NS(=O)(=O)c1cc2c(cc1Cl)NC(C1CC3C=CC1C3)NS2(=O)=O (stereo unspecified) [Cyclothiazide],percent Bodipy-positive cells,library stock concentration: 5.1 mM,11.3 ± 3.2%
CC(=O)CC(c1ccccc1)c1c(O)c2ccccc2oc1=O (stereo unspecified),percent Bodipy-positive cells,[2],26.4 ± 5%
CC(=O)CC(c1ccccc1)c1c(O)c2ccccc2oc1=O (stereo unspecified) [Warfarin],percent Bodipy-positive cells,[2],19.9 ± 0.73%
CC(=O)CC(c1ccccc1)c1c(O)c2ccccc2oc1=O (stereo unspecified) [(?)-Warfarin],percent Bodipy-positive cells,[5],11.35 ± 0.012%
S=C(S)N1CCCC1 [Pyrrolidinedithiocarbamate ammonium],percent Bodipy-positive cells,[2],17.1 ± 1.7%
S=C(S)N1CCCC1 [Ammonium pyrrolidinedithiocarbamate],percent Bodipy-positive cells,[2],16.06 ± 0.05%
CCCCCCCCCCCCCCCCCC(=O)N[C@H]1CCOC1=O [N-octadecanoyl-L-Homoserine lactone],percent Bodipy-positive cells,[5],11.1 ± 4.7%
CO[C@@H]1[C@@H](O[C@@H]2O[C@H](C)[C@@H](O[C@H]3C[C@@](C)(O)[C@@H](OC(=O)CC(C)C)[C@H](C)O3)[C@H](N(C)C)[C@H]2O)[C@@H](CC=O)C[C@@H](C)[C@@H](O)/C=C/C=C/C[C@@H](C)OC(=O)C[C@H]1OC(C)=O [Josamycin],percent Bodipy-positive cells,,28.3 ± 10%
CSC(=N)NCCC[C@H](N)C(=O)O [S-Methyl-L-thiocitrulline acetate],percent Bodipy-positive cells,[2],28.3 ± 5.7%
O=c1oc2c(O)c(O)cc3c(=O)oc4c(O)c(O)cc1c4c23 [Ellagic acid],percent Bodipy-positive cells,[6],8.85 ± 1.5%
same,percent Bodipy-positive cells,[3],33.1 ± 31%
same,percent Bodipy-positive cells,[4],5.13 ± 0.6%
NC(N)=NC(=O)c1nc(Cl)c(N)nc1N,percent Bodipy-positive cells,[2],4.8 ± 1.2%
"CCCCC/C=C\C/C=C\CC1OC1C/C=C\CCCC(=O)O (stereo unspecified) [8,9-Epoxyeicosatrienoic acid]",percent Bodipy-positive cells,library stock concentration: 100 uM,13.4 ± 9.6%
COc1cccc2c1C(=O)c1c(O)c3c(c(O)c1C2=O)C[C@@](O)(C(C)=O)C[C@@H]3O[C@H]1C[C@H](N)[C@H](O)[C@H](C)O1,percent Bodipy-positive cells,[2],100%
COc1cccc2c1C(=O)c1c(O)c3c(c(O)c1C2=O)C[C@@](O)(C(C)=O)C[C@@H]3O[C@H]1C[C@H](N)[C@H](O)[C@H](C)O1 [Daunorubicin HCl],percent Bodipy-positive cells,[1],100%
same,percent Bodipy-positive cells,[2],100%

# Some of the entries so far, with bars between the fields:
smiles | measurement | setting | value
c1nc2c(NC3CCCCC3)nc(Nc3ccc(N4CCOCC4)cc3)nc2[nH]1 [Reversine] | percent Bodipy-positive cells | [1] | 9.78 ± 0.45%
COc1cc2nccc(Oc3ccc(NC(=O)NC4CC4)c(Cl)c3)c2cc1C(N)=O [Lenvatinib (E7080)] | percent Bodipy-positive cells | [1] | 5.68 ± 0.6%

# An excerpt of these results, with tabs.
smiles	measurement	setting	value
COc1cc2nccc(Oc3ccc(NC(=O)NC4CC4)c(Cl)c3)c2cc1C(N)=O	percent Bodipy-positive cells	[4]	14.9 ± 5.1%
NC(N)=NC(=O)c1nc(Cl)c(N)nc1N	percent Bodipy-positive cells	[2]	4.8 ± 1.2%
